# Fewer than 10 of roughly 1,400 compounds were called active.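 Rule for the calls: active = fluorescence-lowering compounds whose fitted half-maximal concentration is at or below ten times the highest valid dose tested; inconclusive = flat curve at 30 to 70% inhibition, or poor fit; inactive = the rest.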 The list shows a part of the results.
# By UniProt entry, the sequences of proteins in these tests, tags left out. Where a name states a change or a piece, a line headed by the entry shows the natural chain unless it says otherwise.
# UniProt O15379: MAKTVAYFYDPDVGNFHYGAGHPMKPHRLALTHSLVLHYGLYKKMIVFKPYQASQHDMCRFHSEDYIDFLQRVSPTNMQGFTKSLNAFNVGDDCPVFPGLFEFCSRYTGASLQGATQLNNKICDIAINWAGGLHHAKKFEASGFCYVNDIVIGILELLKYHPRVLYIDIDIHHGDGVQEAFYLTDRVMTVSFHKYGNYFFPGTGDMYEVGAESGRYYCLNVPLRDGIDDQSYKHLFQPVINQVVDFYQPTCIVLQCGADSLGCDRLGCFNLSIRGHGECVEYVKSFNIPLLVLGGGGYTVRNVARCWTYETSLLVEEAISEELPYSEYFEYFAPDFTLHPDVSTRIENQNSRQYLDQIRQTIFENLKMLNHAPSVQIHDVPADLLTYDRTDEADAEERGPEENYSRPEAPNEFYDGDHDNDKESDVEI
# Molecular target: Histone deacetylase 3 (Homo sapiens) (UniProt O15379)
# Assay: inhibition of human HDAC3 enzymatic activity – biochemical, fluorescence, cherry-picked samples, counter-screen for JMJD2C/GASC1 demethylase inhibitor project, dose response (AID 485318);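 note: enzyme preincubated with compound before substrate and trypsin were added; 0% = neutral control wells and -100% = SAHA positive control wells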
# Details: recombinant HDAC3, fluorogenic peptide/trypsin coupled; at 12 µM (top of the series)
row,SMILES,"activity change, negative = inhibition"
1,C=CCN(CC=C)Cc1c(O)ccc2c1oc(=O)c1ccccc12,inactive: -0.106%
2,COc1ccc(S(=O)(=O)N2CC(O)CC2C(=O)OCc2nc3sc(C)c(C)c3c(=O)[nH]2)cc1 (stereo not given),inactive: 1.15%
3,COC(=O)C1=C(C)OC(N)=C(C#N)C1c1cc2cccc(C)c2nc1Cl (stereo not given),inactive: 0.775%
4,NC(=O)CC(NC(=S)NCc1ccccc1)C(=O)O (stereo not given),inactive: 0.343%
5,CS(=O)(=O)c1ccccc1-c1nnc(NC(=O)c2ccc3ncsc3c2)o1,inactive: -1.47%
6,C=C(C)COc1ccc(-c2n[nH]c(C)c2-c2ccccc2)c(O)c1,inactive: 0.251%
7,c1coc(CSCc2cn3cccnc3n2)c1,inactive: -0.595%
8,CCCNC1=C(N(C(C)=O)c2cccc(F)c2)C(=O)c2ccccc2C1=O,inactive: 0.529%
9,Cc1ccc(CCNC(=O)C23C[C@H]4C[C@@H](C2)CC(n2nnc(C)n2)(C4)C3)cc1,inactive: 0.128%
10,Cc1ccccc1Cn1c2ccccc2c2cn[nH]c(=O)c21,inactive: -0.000171%
11,CN(C(=O)c1ccc(NC(=O)Cc2ccc(NC(=O)C3CCN(C(=O)C4CC4)CC3)cc2)cc1)C1CC1,inactive: -0.494%
12,C#CCOCCOCCOCCNc1nc(N2CCN(C(=O)[C@H](CCC(=O)O)n3cc(CN)nn3)CC2)nc(N2CCN(C(=O)[C@H](CCCN=C(N)N)n3cc(C(N)[C@@H](C)CC)nn3)CC2)n1 (stereo not given in full),inactive: -0.509%
13,Cc1cc(N2C(=O)C(=O)/C(=C(/O)c3ccc(F)cc3)C2c2cccc(Br)c2)no1 (stereo not given),inactive: 0.0199%
14,Cc1cccc(CN2CCC(Oc3ccc(C(=O)N4CCCC4)cc3)CC2)n1,inactive: -0.0921%
15,Cc1nc2ccccn2c1C(=O)NCCCN1CCOCC1,inactive: 1.24%
16,O=C1CC2(CCN(C(=O)c3ccccc3Cl)CC2)Oc2ccccc21,inactive: 0.607%
17,Cc1ccc(OCc2nnnn2-c2ccccc2)cc1,inactive: 0.0431%
18,Cc1ccc(-c2csc3nc(C)n(-n4c(C)ccc4C)c(=O)c23)o1,inactive: 0.0945%
19,CC(C)(C)OC(=O)NNC(=O)Nc1ccccc1C(F)(F)F,inactive: -0.306%
20,COc1cccc(C2c3[nH]c4ccccc4c3CCN2CCCn2cccn2)c1 (stereo not given),inactive: 0.00709%
21,Cc1ccc(C(C)C)c(Oc2nnnn2-c2ccccc2)c1,inactive: 0.671%
22,Oc1cc(O)cc(/C=C/c2ccc(O)c(O)c2)c1,inactive: 0.381%
23,Cc1noc(C)c1NC(=O)Nc1cccc2c1O[C@H](CN(C)S(=O)(=O)c1cccs1)[C@@H](C)CN([C@H](C)CO)C2=O,inactive: 0.216%
24,CSc1nc(N)nc2c1ncn2CC(=O)N[C@H](CO)Cc1c[nH]c2ccccc12,inactive: -0.258%
25,O=C1[C@@H]2[C@H](C(=O)N1O)[C@H]1C=C[C@@H]2C1,inactive: 0.87%
26,CCOC(=O)[C@H]1[C@H]2COc3ccc(OC)cc3[C@@H]2N2C(=O)c3cc(C)ccc3NC(=O)[C@@]12C,inactive: 0.0466%
27,CCn1nnnc1SCC(=O)NCc1cccs1,inactive: -0.443%
28,O=C(Nc1cccnc1)c1ccc2c(c1)C(=O)N(Cc1cccnc1)C2=O,inactive: 0.515%

# Sorted by heavy-atom count (low to high): part of the list above.
row,SMILES,"activity change, negative = inhibition"
6,C=C(C)COc1ccc(-c2n[nH]c(C)c2-c2ccccc2)c(O)c1,inactive: 0.251%
3,COC(=O)C1=C(C)OC(N)=C(C#N)C1c1cc2cccc(C)c2nc1Cl (stereo not given),inactive: 0.775%
5,CS(=O)(=O)c1ccccc1-c1nnc(NC(=O)c2ccc3ncsc3c2)o1,inactive: -1.47%

# More results follow.

row,SMILES,"activity change, negative = inhibition"
1,CCC(C)(C)NC(=O)C(c1cccn1C)N(Cc1ccc(OC)cc1)C(=O)Cn1nnc2ccccc21 (stereo not given),inactive: -0.142%
2,Cc1cc(NC(=O)CCC(=O)N(c2ccccc2)C2(C(=O)NC3CCCCC3)CCCC2)no1,inactive: 0.846%
3,CC(=O)c1c(C)[nH]c(C(=O)NCCC2=CCCCC2)c1C,inactive: 0.207%
4,O=C(NCc1cccs1)c1cccnc1C(=O)O,inactive: 0.975%
5,Cc1noc(C)c1CCC(=O)N1CCCC(CCC(=O)NCc2ccccc2F)C1 (stereo not given),inactive: 0.141%
6,O=c1cc(N2CCc3ccccc32)[nH]c(=O)n1-c1ccccc1,inactive: 0.0216%
7,CCCN(CCC)CCNC(=O)CS(=O)Cc1nc(-c2ccc(C)cc2)oc1C (stereo not given),inactive: 0.188%
8,COC(=O)C1CN(S(=O)(=O)c2ccc(C)cc2)CCN1S(=O)(=O)c1ccc(C)cc1 (stereo not given),inactive: 0.577%
9,COC(C(=O)Nc1ccc(NC(=O)C(OC)c2ccccc2)cc1)c1ccccc1 (stereo not given),inactive: 0.102%
10,CCN(C[C@H]1N[C@@](Cc2ccccc2)(C(=O)OC)[C@H]2C(=O)N(Cc3ccccc3)C(=O)[C@@H]12)S(=O)(=O)c1ccccc1,inactive: -0.121%
11,COc1ccc(NC(=O)N(C)C[C@H]2Oc3c(NS(=O)(=O)c4cccs4)cccc3C(=O)N([C@@H](C)CO)C[C@@H]2C)cc1,inactive: 0.176%
12,COc1cccc(NC(=O)CCN2C(=O)C3CC=CCC3C2=O)c1 (stereo not given),inactive: -0.294%
13,CC1=NN(C(=O)Cc2ccccc2)C(O)(c2cccnc2)C1 (stereo not given),inactive: -0.309%
14,O=C(/C=C\Nc1ccc(Cl)cn1)c1ccc(Br)cc1,inactive: -0.0873%
15,CC(C)(C)c1ccc(-c2csc(NNC3=NCCCCC3)n2)cc1,inactive: -9.81%
16,Cc1onc(-c2c(F)cccc2Cl)c1C(=O)N1CCN(S(C)(=O)=O)CC1,inactive: 0.715%
17,CC(C)(C)OC(=O)C[C@@H]1C/C=C\C[C@H](CC(=O)N[C@H](CO)Cc2ccccc2)C(=O)N[C@@H](Cc2ccccc2)COC1=O,inactive: 1.08%
18,O=C(COC(=O)c1ccco1)NNC(=O)c1ccc(Cl)cc1,inactive: -0.393%
19,COc1c(Cl)cc(Cl)cc1/C=C/C(=O)c1ccc(NC(=O)c2cccs2)cc1,inactive: -1.14%
20,Cc1nc(-c2ccc(C(=O)N3CCCC3)cc2)cs1,inactive: 0.0771%
21,O=C(CCSCc1ccccc1F)NCCc1ccccc1,inactive: 0.826%
22,Fc1cccc(/C=N/Nc2nc3ccccc3[nH]2)c1,inactive: -0.215%
23,CCOC(=O)Cn1nc(C)c2c1CCCC2=O,inactive: -0.467%
24,O=C(COc1ccc(Cl)cc1)NCCCn1ccnc1,inactive: 0.538%
25,O=C(Nc1nc2c(s1)C(=O)CCC2)c1ccccc1,inactive: 0.163%
26,CCC(NS(=O)(=O)c1cccs1)c1ccc(C)cc1 (stereo not given),inactive: 0.629%
27,Cc1cccc(C)c1N1C(=O)c2cccc([N+](=O)[O-])c2C1=O,inactive: -0.27%

# Source: PubChem BioAssay AID485318 (Broad Institute, 2010)
